Screen size: about 400,000 compounds; about 13,000 (3.2%) were called active. The inconclusive results got no clear call from the source; some entries with a clear call stand among them for comparison. Calls follow the shape of the dose curve; as a rule, active = well fitted cell-killing curve with a large enough effect; inconclusive = small, poorly fitted or top-dose-only effect, or effect the other way; inactive = flat fitted curve, though single readings scatter. Potencies beside an inconclusive call are fits to weak or partial responses and may not hold up.
test: qHTS assay for MDR1-selective chemotherapeutics: Primary screen using the drug-selected MDR subline cells KB-V1; conditions: KB-V1 MDR cells viability, CellTiter-Glo, 72 h; activity change, negative = cytotoxicity: at 46.1 µM (top of the series); also: nearly all actives have a fitted effect of over 60% in size
In short: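 Potencies derive from concentration-effect curves fitted to normalized luminescence (CellTiter-Glo) of KB-V1 cells treated for 72 h at 37 degrees C in phenol-red-free DMEM containing 10% FBS.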
% is scaled to controls: 0 for no effect and ±100 for the full control effect; potency is read from the fitted curve at half-maximal effect.

Compound | activity change, negative = cytotoxicity | Potency
C=C(CC[C@]12OC(C(=O)O)C(O)(C(=O)O)C(C(=O)O)(O1)C(OC(=O)/C=C/[C@@H](C)C[C@@H](C)CC)C2O)[C@@H](OC(C)=O)[C@H](C)Cc1ccccc1 (some centres undefined) | inactive: 0% | –
O=c1[nH]nc(N2CCOCC2)c(=O)[nH]1 | inactive: 4.55% | –
COc1ccc(S(=O)(=O)N(C)CC(=O)NC2CC2)cc1 | inactive: 9.03% | –
Brc1ccc(-c2csc(N/N=C/c3cccnc3)n2)cc1 | – | inconclusive: 29.1 µM [cytotoxic, single point]
O=C1c2cccc3cccc(c23)C(=O)N1CCCc1n[nH]c(=S)n1-c1ccccc1 | – | inconclusive: 14.6 µM [cytotoxic, partial curve, poor fit]
Cc1cc(C)nc(OC(=O)c2c(Cl)cc(Cl)cc2Cl)n1 | – | inconclusive: 10.3 µM [cytotoxic, partial curve, poor fit]
Nc1cc(N2CCOCC2)c(Cl)cc1[N+](=O)[O-] | – | active: 6.51 µM
COc1cc(/C=C/C(=O)/C=C(O)/C=C/c2ccc(O)c(OC)c2)ccc1O | inactive: 0% | –
Cc1cc(=O)oc2cc(OCC(=O)NCCCN3CCCC3=O)ccc12 | – | inconclusive: 25.9 µM [rising, single point]
COc1ccc(N(Cc2cc(=O)[nH]c3ccccc23)C(=O)CCl)cc1 | – | inconclusive: 29.1 µM [cytotoxic, single point]
Cc1c(C(=O)N2CCC(C)CC2)oc2ccc(S(=O)(=O)N3CCC4(CC3)OCCO4)cc12 | – | inconclusive: 9.2 µM [cytotoxic, partial curve]
CC(C)C(NS(=O)(=O)c1cccs1)C(=O)Nc1nc(C(C)(C)C)cs1 (centres undefined) | – | inconclusive: 20.6 µM [cytotoxic, single point]
CC(=O)COc1ccc2c(c1C)O/C(=C\c1ccco1)C2=O | inactive: -0.146% | –
CCOc1ccc(N(C(=O)CNC(=O)c2ccco2)C(C(=O)NC2CCCC2)c2ccncc2)cc1 (centres undefined) | – | inconclusive: 11.6 µM [rising, partial curve, poor fit]
Cc1cc(-c2n[nH]c(=S)n2/N=C/c2ccc(Cl)c([N+](=O)[O-])c2)n[nH]1 | inactive: -12.6% | –
CC(=O)Oc1cccc(/C=C2\Sc3ccccc3C2=O)c1 | – | inconclusive: 25.9 µM [rising, single point]
CCOC(=O)C1CCCN(c2c(N3CCC(N4CCCCC4)CC3)c(=O)c2=O)C1 (centres undefined) | inconclusive: -12.1% | –
O=C(C[C@H]1C(=O)N(Cc2cccnc2)C[C@@H]1Cc1ccccc1)Nc1ccc(Br)cc1 | – | inconclusive: 9.2 µM [cytotoxic, partial curve]
Cc1cccc(NC(=O)Nc2cnccn2)c1 | – | inconclusive: 29.1 µM [rising, single point]
CC(=O)c1sc(N/N=C2\CC3CCC2(C)C3(C)C)nc1C (centres undefined) | – | inconclusive: 8.2 µM [cytotoxic, partial curve, poor fit]
O=C(NCCS(=O)(=O)N1CCN(c2cccc(Cl)c2)CC1)c1ccc2c(c1)OCO2 | – | inconclusive: 29.1 µM [cytotoxic, single point]
COc1ccc(CN(C)S(=O)(=O)c2nnc(NC(=O)c3ccccc3OC)s2)cc1OC | inactive: 10.6% | –
CC(C)C[C@H]1CN(CCCC[C@@H]2CNC(=O)C(=O)N2Cc2ccccc2)C(=O)C(=O)N1CCc1ccc(O)cc1 | – | inconclusive: 29.1 µM [rising, single point]

Compound | activity change, negative = cytotoxicity | Potency
COC(=O)c1c(NC(=O)C(C)C)sc2c1C(C(=O)OC)CC2 (centres undefined) | – | active: 13 µM
COC(=O)[C@@]1(C)CC[C@]2(C)CC[C@@]3(C)C(=CC(=O)C4[C@@]5(C)CC[C@H](O)C(C)(C)[C@@H]5CC[C@]43C)[C@H]2C1 (some centres undefined) | – | inconclusive: 29.1 µM [rising, single point]
O=C1CN(C(=O)c2cccc(Br)c2)C(c2ccccc2)c2cc(Cl)ccc2N1 (centres undefined) | – | inconclusive: 16.4 µM [cytotoxic, partial curve]
CCOc1cccc(-c2nc3ccccc3c(=O)o2)c1 | inactive: -8.36% | –
Cc1[nH]c(-c2ccccn2)nc(=S)c1Cl | – | inconclusive: 29.1 µM [cytotoxic, single point]
CC1(C(=O)NCCc2ccccc2)Cc2c(-c3ccc4c(c3)OCO4)ccnc2O1 (centres undefined) | inactive: -54.9% | –
N#Cc1c(-n2ncnc2-c2cccc(Cl)c2)sc2c1CCCCC2 | inactive: 10.5% | –
O=C(NC1CCCCC1)C1c2ccccc2OCC(=O)N1Cc1ccccc1 (centres undefined) | inactive: 10.4% | –
C=C1C(=O)OC2C1CCC(C)C1C=CC(=O)C12C (centres undefined) | – | inconclusive: 2.31 µM [cytotoxic, partial curve, poor fit]
Cc1nc2nc(CNC(=O)OC(C)(C)C)nn2c(C)c1CCC(=O)NCc1ccccc1Cl | – | inconclusive: 20.6 µM [rising, partial curve, poor fit]
COc1ccc(-c2cnc3c(NC=O)cc(-c4cc(OC)c(OC)c(OC)c4)cn23)cc1OC | – | active: 23.1 µM
COc1ccc(CN(C(=O)c2cc3ccccc3oc2=O)C2CCCCC2)cc1OC | – | inconclusive: 6.51 µM [cytotoxic, partial curve]
O=C(CSc1nc2ccccc2c(=O)n1CC1CCCO1)Nc1ccccc1Cl (centres undefined) | – | inconclusive: 7.31 µM [cytotoxic, partial curve]
O=c1[nH]c2ccc(Cl)cc2[nH]1 | – | inconclusive: 18.4 µM [cytotoxic, single point]
Cc1ccc(S(=O)(=O)NCC(C)n2cncn2)cc1C (centres undefined) | – | inconclusive: 29.1 µM [rising, single point]
COc1ccccc1CNc1ccc2nnc(CCNC(=O)c3ccc(C)cc3)n2n1 | – | inconclusive: 0.0046 µM [rising, full curve, poor fit]
O=C(CC(NC(=O)c1ccccc1Cl)c1ccccc1)NCCc1ccc(Cl)cc1 (centres undefined) | – | active: 8.2 µM
Cc1ccccc1NC(=S)N1CCCCCC1 | – | inconclusive: 16.4 µM [rising, single point]
Nc1nc(N)c(S(=O)(=O)c2ccccc2)c(Nc2ccccc2)n1 | inactive: -19.9% | –
Cc1ccc(CNC(=O)/C=C/c2ccc(Br)o2)cc1 | – | inconclusive: 32.6 µM [rising, partial curve, poor fit]
COc1ccc(/C=C2\SC(=S)N(CCC(=O)NC3=NCCS3)C2=O)cc1OC | inactive: -12.4% | –
CCCCOc1ccc(/C=C/C(=O)OCC(=O)N2CC(=O)Nc3ccccc32)cc1OCC | – | inconclusive: 11.6 µM [cytotoxic, partial curve, poor fit]
Cc1ncc([N+](=O)[O-])n1CC(=O)Nc1cc(Cl)ccc1Cl | inactive: 4.77% | –

Quoted at random: six records from the list
Compound | activity change, negative = cytotoxicity | Potency
COc1ccc(CN(C(=O)c2cc3ccccc3oc2=O)C2CCCCC2)cc1OC | – | inconclusive: 6.51 µM [cytotoxic, partial curve]
Nc1nc(N)c(S(=O)(=O)c2ccccc2)c(Nc2ccccc2)n1 | inactive: -19.9% | –
O=C(CC(NC(=O)c1ccccc1Cl)c1ccccc1)NCCc1ccc(Cl)cc1 (centres undefined) | – | active: 8.2 µM
COC(=O)[C@@]1(C)CC[C@]2(C)CC[C@@]3(C)C(=CC(=O)C4[C@@]5(C)CC[C@H](O)C(C)(C)[C@@H]5CC[C@]43C)[C@H]2C1 (some centres undefined) | – | inconclusive: 29.1 µM [rising, single point]
COC(=O)c1c(NC(=O)C(C)C)sc2c1C(C(=O)OC)CC2 (centres undefined) | – | active: 13 µM
Cc1ccc(S(=O)(=O)NCC(C)n2cncn2)cc1C (centres undefined) | – | inconclusive: 29.1 µM [rising, single point]

Remaining list, next part

Compound | activity change, negative = cytotoxicity | Potency
Cc1cc(C)nc(N2CCCC(C(=O)NCCc3ccc(F)cc3)C2)n1 (centres undefined) | – | active: 18.4 µM
CC(Sc1ccccc1)C(=O)NCC(c1ccco1)N1CCCCC1 (centres undefined) | – | inconclusive: 7.31 µM [cytotoxic, partial curve]
Cc1ccc(S(=O)(=O)NC(CC(C)C)C(=O)NCCCn2nc(C)cc2C)cc1 (centres undefined) | – | inconclusive: 9.2 µM [cytotoxic, partial curve, poor fit]
O=c1cc(C(F)(F)F)oc2c1ccc1ccccc12 | inactive: 1.91% | –
Nc1cc(-c2ccccc2)nn1Cc1ccccc1 | – | inconclusive: 0.0092 µM [cytotoxic, full curve, poor fit]
CNc1snc(C)c1C(=O)OCC(=O)c1ccc(OC)c(F)c1 | – | inconclusive: 18.4 µM [cytotoxic, single point]
CC(=O)N1Cc2cc(C(=O)NCc3cccc(F)c3)nc(-c3cccc(C4=CCCC4)c3)c2[C@H]1CCO | – | inconclusive: 18.4 µM [cytotoxic, partial curve, poor fit]
COc1ccc(-c2cc(C(F)F)n3ncc(C(=O)N4CCN(C)CC4)c3n2)cc1 | inactive: -16.1% | –
CCCc1c2ccccc2nc2ccccc12 | – | inconclusive: 20.6 µM [cytotoxic, partial curve]
CCOC(=O)COc1ccc(C2CC(C)=NN2c2ccccc2)cc1 (centres undefined) | – | inconclusive: 16.4 µM [rising, single point]
CCn1cc(CN(C)C(=O)/C=C/c2ccc([N+](=O)[O-])cc2)c(C)n1 | – | active: 18.4 µM
O=C(NNS(=O)(=O)c1cccc(Cl)c1Cl)c1cccc(S(=O)(=O)N2CCOCC2)c1 | – | inconclusive: 23.1 µM [rising, single point]
COc1ccc(OC)c(/C=C/c2ccccc2)c1 | inactive: 10.7% | –
CC(=O)N1CCc2ccc(S(=O)(=O)N3CC(C)OC(C)C3)cc21 (centres undefined) | – | inconclusive: 20.6 µM [cytotoxic, partial curve, poor fit]
CN(C)c1ccc(C(=S)NCc2ccco2)cc1 | – | inconclusive: 29.1 µM [cytotoxic, partial curve, poor fit]
CCN(CC)S(=O)(=O)c1cc(C(=O)Nc2nncs2)c(Cl)cc1Cl | – | inconclusive: 35.5 µM [cytotoxic, single point]
COc1ccc(/C=N\NC(=O)C2COc3ccccc3O2)cc1O (centres undefined) | – | inconclusive: 29.1 µM [cytotoxic, single point]
COc1ccc(S(=O)(=O)N2CCCCCC2)cc1C(=O)Nc1ccc(C)cn1 | inactive: 18.1% | –
Cc1cc(C)c(NC(=O)CCN2CCCCC2)c(C)c1 | inactive: -8.77% | –
CC(C)C(C(=O)NC1CCCC1)N1CCC(O)(c2ccc(Cl)cc2)CC1 (centres undefined) | – | inconclusive: 2.91 µM [cytotoxic, full curve, poor fit]
CC(=O)Nc1ccc(NC(=S)NC(=O)c2oc3ccccc3c2C)cc1 | – | inconclusive: 4.11 µM [cytotoxic, full curve]
O=S(=O)(Nc1ccc(OC(F)(F)F)cc1)c1ccc(N2CCCCS2(=O)=O)cc1 | – | inconclusive: 18.4 µM [cytotoxic, single point]
COc1ccc(C/C(N)=N/OC(=O)c2ccco2)cc1OC | inactive: -7.55% | –

— PubChem BioAssay AID1347076 (National Center for Advancing Translational Sciences (NCATS), 2019)
